Experimental data reported in PMC10837206, “R-Spondin 2 governs Xenopus left-right body axis formation by establishing an FGF signaling gradient” (Nature Communications, 2024).
Where two headings read alike, the source gives them in different places. These are yes or no findings as the source states them, for the method shown. Some results given as binding are weak or reduced against the parent protein; the word gives no strength. For some assays here: Sequences can lack the tags named with a protein.

The chains behind the UniProt entries cited, without tags or fusion partners. Where a name states a change or a piece, a line headed by the entry shows the natural chain unless it says otherwise. Residues count along the entry.
UniProt P36894: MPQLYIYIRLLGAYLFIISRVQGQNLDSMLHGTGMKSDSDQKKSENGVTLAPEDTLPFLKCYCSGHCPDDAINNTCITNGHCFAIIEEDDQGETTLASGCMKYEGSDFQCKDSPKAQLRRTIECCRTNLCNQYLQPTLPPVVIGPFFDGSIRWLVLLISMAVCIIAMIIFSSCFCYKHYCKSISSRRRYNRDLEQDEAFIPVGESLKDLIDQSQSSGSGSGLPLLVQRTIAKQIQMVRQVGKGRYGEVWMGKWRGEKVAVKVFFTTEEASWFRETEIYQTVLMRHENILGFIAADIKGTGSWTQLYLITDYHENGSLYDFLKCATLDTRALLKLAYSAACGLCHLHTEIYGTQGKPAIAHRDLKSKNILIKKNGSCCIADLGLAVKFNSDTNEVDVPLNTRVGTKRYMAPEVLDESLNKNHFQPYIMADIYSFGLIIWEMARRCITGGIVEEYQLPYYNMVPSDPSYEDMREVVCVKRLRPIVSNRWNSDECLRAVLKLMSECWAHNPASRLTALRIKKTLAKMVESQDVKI
BMPR1A-HA on transfected HEK293T cells: residues 24-532 of P36894
UniProt P11362, residues 22-376: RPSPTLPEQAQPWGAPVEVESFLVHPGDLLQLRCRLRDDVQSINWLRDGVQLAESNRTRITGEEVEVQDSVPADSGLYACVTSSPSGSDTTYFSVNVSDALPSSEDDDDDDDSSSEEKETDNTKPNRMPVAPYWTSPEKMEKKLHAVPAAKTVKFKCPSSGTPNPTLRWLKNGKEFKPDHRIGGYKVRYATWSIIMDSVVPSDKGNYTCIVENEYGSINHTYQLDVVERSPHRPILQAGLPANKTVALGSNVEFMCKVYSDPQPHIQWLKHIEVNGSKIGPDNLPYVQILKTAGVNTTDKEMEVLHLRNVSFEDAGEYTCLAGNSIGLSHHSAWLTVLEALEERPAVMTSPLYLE
UniProt Q2MKA7, residues 21-263: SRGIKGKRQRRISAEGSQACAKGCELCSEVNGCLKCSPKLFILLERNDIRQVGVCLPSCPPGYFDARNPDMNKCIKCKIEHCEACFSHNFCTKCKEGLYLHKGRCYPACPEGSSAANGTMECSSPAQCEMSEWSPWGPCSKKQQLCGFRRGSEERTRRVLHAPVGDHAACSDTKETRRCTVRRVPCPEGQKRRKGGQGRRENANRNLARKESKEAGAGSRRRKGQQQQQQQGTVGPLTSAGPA
UniProt Q2I0M5, residues 20-234: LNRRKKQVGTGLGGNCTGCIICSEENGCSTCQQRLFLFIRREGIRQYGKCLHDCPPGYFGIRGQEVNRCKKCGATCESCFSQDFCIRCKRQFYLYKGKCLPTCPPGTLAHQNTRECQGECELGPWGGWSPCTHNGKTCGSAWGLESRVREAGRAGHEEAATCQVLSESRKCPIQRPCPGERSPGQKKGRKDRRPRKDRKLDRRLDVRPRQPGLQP

Columns and labels:
[1] = target: human RSPO2-AP (alkaline-phosphatase-tagged R-Spondin 2 fusion protein) (human) (UniProt Q6UXX9); experiment: cell surface competitive binding assay (AP fusion protein on transfected cells); as a4; the soluble Fc Chimera (5 nM) against RSPO2-AP in conditioned medium; only the binder purified
[2] = target: human FGFR4-HA (Fibroblast Growth Factor receptor 4) on transfected HEK293T cells (human) (UniProt P22455); experiment: cell surface binding assay (AP fusion protein on transfected cells); HEK293T cells transfected with the receptor; 2-2.5 U ml^-1 AP-fused conditioned media for 3 h on ice; cross-linked with DSP; developed with BM-Purple
[3] = target: T1, Xenopus tropicalis Lgr4-V5 on transfected HEK293T cells (Xenopus tropicalis) (UniProt B0BLW3); experiment: as above
T1 sequence: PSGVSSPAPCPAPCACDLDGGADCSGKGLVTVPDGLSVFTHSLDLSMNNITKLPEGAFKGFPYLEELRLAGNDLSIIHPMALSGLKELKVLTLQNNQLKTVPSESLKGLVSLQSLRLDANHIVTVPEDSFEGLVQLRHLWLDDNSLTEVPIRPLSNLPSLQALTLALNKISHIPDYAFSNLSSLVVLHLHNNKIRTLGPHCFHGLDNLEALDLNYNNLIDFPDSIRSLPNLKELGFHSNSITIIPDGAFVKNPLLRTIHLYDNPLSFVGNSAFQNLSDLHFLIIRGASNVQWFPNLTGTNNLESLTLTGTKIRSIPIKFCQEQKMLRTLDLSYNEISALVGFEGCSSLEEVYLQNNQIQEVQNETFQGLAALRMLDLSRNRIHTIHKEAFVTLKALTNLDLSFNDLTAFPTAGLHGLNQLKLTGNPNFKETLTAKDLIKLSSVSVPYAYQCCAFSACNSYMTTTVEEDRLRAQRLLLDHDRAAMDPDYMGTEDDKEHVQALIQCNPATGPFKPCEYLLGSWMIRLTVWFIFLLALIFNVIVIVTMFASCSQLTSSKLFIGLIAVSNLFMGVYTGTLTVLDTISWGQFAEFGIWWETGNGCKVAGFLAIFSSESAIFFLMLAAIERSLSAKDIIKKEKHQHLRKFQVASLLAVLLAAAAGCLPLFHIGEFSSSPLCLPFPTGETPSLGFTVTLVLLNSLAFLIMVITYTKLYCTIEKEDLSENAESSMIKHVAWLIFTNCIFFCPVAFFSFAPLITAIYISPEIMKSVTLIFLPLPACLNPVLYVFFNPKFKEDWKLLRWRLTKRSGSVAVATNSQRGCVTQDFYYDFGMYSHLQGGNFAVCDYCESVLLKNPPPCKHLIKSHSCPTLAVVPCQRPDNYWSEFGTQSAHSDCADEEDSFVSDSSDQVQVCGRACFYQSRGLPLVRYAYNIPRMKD

[4] = target: human FGFR4-HA (Fibroblast Growth Factor receptor 4) on transfected HEK293T cells (human) (UniProt P22455); experiment: cell surface competitive binding assay (AP fusion protein on transfected cells); HEK293T cells transfected with the receptor; RSPO2-AP conditioned medium together with 50 uM TK, KC or RW peptide; the pair RSPO2-AP and receptor on cells
[5] = target: BMPR1A-HA on transfected HEK293T cells (UniProt P36894); experiment: as above
[6] = target: T2, recombinant human FGFR4 Fc Chimera (human, UniProt P22455 22-369); experiment: in vitro competitive binding assay (solid phase, bound AP activity); coated FGFR4 Fc Chimera; 2 U ml^-1 RSPO2-AP together with 100 uM monomeric peptides for 3 h at room temperature; the pair RSPO2-AP and FGFR4 Fc; only the target purified
T2 construct: Fibroblast Growth Factor receptor 4 (FGFR4), human, extracellular domain; also called FGFR4^ECD; extracellular domain (ECD) of FGFR4; source: bought: R&D systems 685-FR and BioLegend 752502
T2 sequence (looked up): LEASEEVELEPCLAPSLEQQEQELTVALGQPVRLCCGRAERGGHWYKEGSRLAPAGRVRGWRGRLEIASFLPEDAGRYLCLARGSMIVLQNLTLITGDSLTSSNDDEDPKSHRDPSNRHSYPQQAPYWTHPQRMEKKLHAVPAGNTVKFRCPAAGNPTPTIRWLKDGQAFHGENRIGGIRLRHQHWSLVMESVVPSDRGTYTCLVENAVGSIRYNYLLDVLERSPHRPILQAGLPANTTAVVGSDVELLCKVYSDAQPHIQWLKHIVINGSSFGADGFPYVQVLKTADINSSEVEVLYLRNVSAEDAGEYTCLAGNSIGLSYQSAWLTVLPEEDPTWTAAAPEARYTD

[7] = target: T2, recombinant human FGFR4 Fc Chimera; experiment: in vitro binding assay (solid phase, bound AP activity); 96-well plates coated with 2-4 ug ml^-1 Fc Chimera in bicarbonate coating buffer pH 9.6; 2 U ml^-1 RSPOs-AP overnight at 4 °C; AquaSpark AP substrate; only the target purified
FGFR1 Fc Chimera [8] = target: FGFR1 Fc Chimera (UniProt P11362); experiment: as above
[9] = target: human FGFR4-HA (Fibroblast Growth Factor receptor 4) on transfected HEK293T cells (human) (UniProt P22455); experiment: cell surface competitive binding assay (AP fusion protein on transfected cells); HEK293T cells transfected with the receptor; RSPO2-AP conditioned medium together with 5 nM FGFR4 Fc Chimera or 5 nM BMPR1A Fc Chimera; the pair RSPO2-AP and receptor on cells
[10] = target: BMPR1A-HA on transfected HEK293T cells (UniProt P36894); experiment: as above
[11] = target: T3, Xenopus laevis Fgfr4a-V5 on transfected HEK293T cells (Xenopus laevis) (UniProt Q91743); experiment: cell surface binding assay (AP fusion protein on transfected cells); HEK293T cells transfected with the receptor; 2-2.5 U ml^-1 AP-fused conditioned media for 3 h on ice; cross-linked with DSP; developed with BM-Purple
T3 sequence: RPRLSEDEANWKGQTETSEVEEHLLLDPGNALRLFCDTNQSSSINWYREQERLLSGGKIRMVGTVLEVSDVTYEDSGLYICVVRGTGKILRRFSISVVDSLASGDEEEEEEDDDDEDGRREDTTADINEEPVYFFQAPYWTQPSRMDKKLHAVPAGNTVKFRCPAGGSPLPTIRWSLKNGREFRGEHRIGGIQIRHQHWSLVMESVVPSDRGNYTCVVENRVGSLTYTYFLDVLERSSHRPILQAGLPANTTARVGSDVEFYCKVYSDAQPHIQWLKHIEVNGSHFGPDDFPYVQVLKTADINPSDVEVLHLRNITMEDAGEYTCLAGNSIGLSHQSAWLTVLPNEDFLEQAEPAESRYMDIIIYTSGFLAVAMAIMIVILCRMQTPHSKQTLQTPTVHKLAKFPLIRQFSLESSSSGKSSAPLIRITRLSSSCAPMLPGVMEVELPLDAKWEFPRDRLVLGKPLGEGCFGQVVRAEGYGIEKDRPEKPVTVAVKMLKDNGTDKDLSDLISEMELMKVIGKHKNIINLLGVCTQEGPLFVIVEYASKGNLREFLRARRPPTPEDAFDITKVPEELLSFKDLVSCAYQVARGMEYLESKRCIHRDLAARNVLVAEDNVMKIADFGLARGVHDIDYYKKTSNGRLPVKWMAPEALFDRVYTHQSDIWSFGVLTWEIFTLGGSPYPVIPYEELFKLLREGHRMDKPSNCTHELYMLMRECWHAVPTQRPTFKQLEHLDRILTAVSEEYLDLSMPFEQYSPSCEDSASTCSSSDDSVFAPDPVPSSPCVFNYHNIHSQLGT

[12] = target: human FGFR4-HA (Fibroblast Growth Factor receptor 4) on transfected HEK293T cells (human) (UniProt P22455); experiment: cell surface competitive binding assay (AP fusion protein on transfected cells); as a6; the peptide (50 uM) against the receptor on cells; only the binder purified
[13] = target: human FGFR4-HA (Fibroblast Growth Factor receptor 4) on transfected HEK293T cells (human) (UniProt P22455); experiment: cell surface binding assay (AP fusion protein on transfected cells); HEK293T cells transfected with the receptor; 2-2.5 U ml^-1 AP-fused conditioned media for 3 h on ice; cross-linked with DSP; developed with BM-Purple; remark: listed apart in the source
[14] = target: T1, Xenopus tropicalis Lgr4-V5 on transfected HEK293T cells (Xenopus tropicalis); experiment: as above; remark: listed apart in the source
FGFR1 Fc Chimera [15] = target: FGFR1 Fc Chimera (UniProt P11362); experiment: in vitro binding assay (solid phase, bound AP activity); 96-well plates coated with 2-4 ug ml^-1 Fc Chimera in bicarbonate coating buffer pH 9.6; 2 U ml^-1 RSPOs-AP overnight at 4 °C; AquaSpark AP substrate; only the target purified; remark: listed apart in the source

For “BMPR1A Fc Chimera (from UniProt P36894 24-152) (Fc fusion)”, the binding [1] was “binds”.

With “human RSPO1-AP (alkaline-phosphatase-tagged R-Spondin 1 fusion protein) (from UniProt Q2MKA7 21-263) (ligand)” the binding [2] was “no binding (tested: 2-2.5 U ml^-1 AP-fused conditioned media)” and the binding [3] was “binds”.

In the case of “human RSPO4-AP (alkaline-phosphatase-tagged R-Spondin 4 fusion protein) (from UniProt Q2I0M5 20-234) (ligand)”, the binding [2] is reported as “no binding (tested: 2-2.5 U ml^-1 AP-fused conditioned media)” and the binding [3] is reported as “binds”.

B1: human RSPO2-AP (alkaline-phosphatase-tagged R-Spondin 2 fusion protein) (ligand, UniProt Q6UXX9 22-243, looked up)
chain: QGNRWRRSKRASYVSNPICKGCLSCSKDNGCSRCQQKLFFFLRREGMRQYGECLHSCPSGYYGHRAPDMNRCARCRIENCDSCFSKDFCTKCKVGFYLHRGRCFDECPDGFAPLEETMECVEGCEVGHWSEWGTCSRNNRTCGFKWGLETRTRQIVKKPVKDTILCPTIAESRRCKMTMRHCPGGKRTPKAKEKRNKKKKRKLIERAQEQHSVFLATDRANQ
notes: R-Spondin 2 (RSPO2), human; also called R2; source: HEK293T, transfected, conditioned medium
In the case of B1, the binding [4] is reported as “binds”, the binding [5] is reported as “binds” and the binding [2] is reported as “binds”. For the same molecule, the binding [3] was “binds”, the binding [6] was “binds” and the binding [7] was “binds”. For the same molecule, the binding (FGFR1 Fc Chimera [8]) was “binds weakly”, the binding [9] was “binds” and the binding [10] was “binds”.

B2: Xenopus Rspo2 wildtype-AP (ligand, UniProt Q5UE90 22-243)
chain: QASRWRRSKRASYGTNPICKGCLSCSKDNGCLRCQPKLFFFLRREGMRQYGECLQSCPPGYYGVRGPDMNRCSRCRIENCDSCFSRDFCIKCKSGFYSLKGQCFEECPEGFAPLDDTMVCVDGCEVGPWSEWGTCSRNNRTCGFKWGLETRTRQIVKKPAKDTIPCPTIAESRRCKMAIRHCPGGKRTTKKKDKRNKKKKKKLLERAQEQHSVVLATDRSSQ
B2 was tested, and the binding [11] was “binds”.

B3: TK peptide (10-mer derived from the human RSPO2 TSP1 domain) (peptide)
peptide: TRQIVKKPVK
notes: stretch of the TSP1 domain of human R-Spondin 2 (RSPO2)
B3 was tested, and the binding [12] was “binds”.

B4: KC peptide (10-mer derived from the human RSPO2 TSP1 domain) (peptide)
peptide: KKPVKDTILC
notes: as for B3
In the case of B4, the binding [12] is reported as “binds”.

B5: human RSPO3-AP (alkaline-phosphatase-tagged R-Spondin 3 fusion protein) (ligand, UniProt Q9BXY4 22-272)
chain: QNASRGRRQRRMHPNVSQGCQGGCATCSDYNGCLSCKPRLFFALERIGMKQIGVCLSSCPSGYYGTRYPDINKCTKCKADCDTCFNKNFCTKCKSGFYLHLGKCLDNCPEGLEANNHTMECVSIVHCEVSEWNPWSPCTKKGKTCGFKRGTETRVREIIQHPSAKGNLCPPTNETRKCTVQRKKCQKGERGKKGRERKRKKPNKGESKEAIPDSKSLESSKEIPEQRENKQQQKKRKVQDKQKSVSVSTVH
B5 was tested, and the binding [13] was “binds weakly”, the binding [14] was “binds” and the binding (FGFR1 Fc Chimera [15]) was “binds weakly”.
